The values below come from the supplement of paper PMC3682954.

Values joined by “and” are separate entries in the source; they are usually repeats but may differ in a detail not shown here. Identical values can stand only once. Counter-ions that a name gives are not always drawn. ± gives the standard deviation of the averaged measurements. The list shows a part of the results. Single values are uncertain, as repeats are few or missing.

The assay deals with RAW 264.7. The assay can be described thus: cell viability (MTT) relative to vehicle control; higher = more viable cells. The settings on record: stimulus: HMGB1 5 ug/ml, 18 h.
The mark [1] stands for this setting: compound concentration: 1 ug/ml.

As for `CCCCC(=O)O[C@H]1CC[C@H]2[C@@H]3CCc4cc(O)ccc4[C@H]3CC[C@]12C` [Estradiol Valerate], for the setting “compound concentration: 3 uM”, the cell viability (usually a read-out of living cells in per cent, often relative to untreated cells) is 104%.
On to `CCCCC(=O)O[C@H]1CC[C@H]2[C@@H]3CCc4cc(O)ccc4[C@H]3CC[C@]12C` [estradiol valerate], for which, under setting [1], the cell viability was 105%.
For `CCCCC(=O)O[C@H]1CC[C@H]2[C@@H]3CCc4cc(O)ccc4[C@H]3CC[C@]12C`, the cell viability (compound concentration: 3 uM) was found to be 111%.
As for `CC(=O)Nc1cc2ccccc2oc1=O` [3-Acetamidocoumarin], under “compound concentration: 3 uM”, the cell viability is 113%.
On the same count and under the same terms, in the case of `CC1(C)S[C@@H]2[C@H](NC(=O)[C@H](N)c3ccc(O)cc3)C(=O)N2[C@H]1C(=O)O` it was 103%.
With `CC1(C)S[C@@H]2[C@H](NC(=O)[C@H](N)c3ccc(O)cc3)C(=O)N2[C@H]1C(=O)O` [Amoxicillin], the cell viability (compound concentration: 3 uM) turned out to be 91.6%.
On the same count and under the same terms, the same measure for `Cn1cnc2c(NCc3ccccc3)nc(NCCO)nc21` [Olomoucine]: 105%; for `COc1cccc2c1C(=O)c1c(O)c3c(c(O)c1C2=O)C[C@@](O)(C(=O)CO)C[C@@H]3O[C@H]1C[C@H](N)[C@H](O)[C@H](C)O1` [Doxorubicin HCl]: 13.9%; for `COc1cccc2c1C(=O)c1c(O)c3c(c(O)c1C2=O)C[C@@](O)(C(=O)CO)C[C@@H]3O[C@H]1C[C@H](N)[C@H](O)[C@H](C)O1`: 3.64% and 12%.
Still for that read-out and setting: in the case of `COc1cccc2c1C(=O)c1c(O)c3c(c(O)c1C2=O)C[C@@](O)(C(=O)CO)C[C@@H]3O[C@H]1C[C@H](N)[C@H](O)[C@H](C)O1` [Doxorubicin hydrochloride] it was 2.84%; in that of `CCC(=O)O[C@@H](O[P@](=O)(CCCCc1ccccc1)CC(=O)N1C[C@H](C2CCCCC2)C[C@H]1C(=O)O)C(C)C` [Fosinopril], 104 ± 1.4%.
The same measure, in the same setting: the same measure for `OCCOCCN1CCN(C2=Nc3ccccc3Sc3ccccc32)CC1`: 95.8% and 102%; for `OCCOCCN1CCN(C2=Nc3ccccc3Sc3ccccc32)CC1` [Quetiapine Fumarate]: 109%; for `OCCOCCN1CCN(C2=Nc3ccccc3Sc3ccccc32)CC1` [Quetiapine]: 120%.
Turning to `C[C@H](N)CO`, the cell viability (compound concentration: 3 uM) was 123%.
As to `O=c1cc(-c2ccccc2O)oc2c(O)c(O)ccc12`, the cell viability under setting [1] worked out at 86%.
For the compound `Nc1nc(Cl)nc2c1ncn2[C@H]1C[C@H](O)[C@@H](CO)O1`, the cell viability (compound concentration: 3 uM) was determined as 83.8%.
On to `Nc1nc(Cl)nc2c1ncn2[C@H]1C[C@H](O)[C@@H](CO)O1` [Cladribine], for which the cell viability (compound concentration: 3 uM) was 70.9%.
Same read-out and setting: the same measure for `Cc1cccc(C(=O)O)c1O`: 113%; for `CN[C@@H]1[C@H](O[C@H]2[C@H](O[C@H]3[C@H](O)[C@@H](O)[C@H](N=C(N)N)[C@@H](O)[C@@H]3N=C(N)N)O[C@@H](C)[C@]2(O)C=O)O[C@@H](CO)[C@H](O)[C@H]1O` [Streptomycin sulfate]: 93.2%.
On to `CN[C@@H]1[C@H](O[C@H]2[C@H](O[C@H]3[C@H](O)[C@@H](O)[C@H](N=C(N)N)[C@@H](O)[C@@H]3N=C(N)N)O[C@@H](C)[C@]2(O)C=O)O[C@@H](CO)[C@H](O)[C@H]1O`, for which, where the note is “compound concentration: 3 uM”, the cell viability came to 108%.
As to `CN[C@@H]1[C@H](O[C@H]2[C@H](O[C@H]3[C@H](O)[C@@H](O)[C@H](N=C(N)N)[C@@H](O)[C@@H]3N=C(N)N)O[C@@H](C)[C@]2(O)C=O)O[C@@H](CO)[C@H](O)[C@H]1O` [Streptomycin], the cell viability (compound concentration: 3 uM) was 103%.
On the same count and under the same terms, the same measure for `COc1cccc2c1[C@@H]1CN(CCCCn3c(=O)[nH]c4c(sc5ncc(-c6ccccc6)nc54)c3=O)C[C@@H]1CO2` [Fiduxosin hydrochloride]: 105%.
Regarding `CCCCCCc1ccc(O)cc1O.Nc1c2ccccc2nc2ccccc12`, the cell viability (compound concentration: 3 uM) came out at 110%.
The same measure, in the same setting: in the case of `NC(=O)c1cc[n+](CC2=C(C(=O)O)N3C(=O)[C@@H](NC(=O)[C@@H](c4ccccc4)S(=O)(=O)[O-])[C@H]3SC2)cc1` it was 105%; in that of `CCCCCCCCCc1ccc(OCCOCCOCCOCCOCCOCCOCCOCCOCCO)cc1`, 114%; in that of `CC(C)c1ccc2oc3nc(N)c(C(=O)O)cc3c(=O)c2c1`, 92.3%.
On the same count and under the same terms, the same measure for `CC1(C)S[C@@H]2[C@H](NC(=O)[C@H](NC(=O)N3CCNC3=O)c3ccccc3)C(=O)N2[C@H]1C(=O)O` [Azlocillin sodium salt]: 78%.
The same measure, in the same setting: the same measure for `CC1(C)S[C@@H]2[C@H](NC(=O)[C@H](NC(=O)N3CCNC3=O)c3ccccc3)C(=O)N2[C@H]1C(=O)O`: 113%.
As for `COC(=O)Nc1nc2cc(C(=O)c3ccccc3)ccc2[nH]1`, the cell viability (compound concentration: 3 uM) was found to be 98.8%.
The same measure, in the same setting: in the case of `COC(=O)Nc1nc2cc(C(=O)c3ccccc3)ccc2[nH]1` [Mebendazole] it was 69.4%; in that of `COC(=O)Nc1nc2cc(C(=O)c3ccccc3)ccc2[nH]1` [Mebendazol], 76%; in that of `Clc1cnccn1` [2-Chloropyrazine], 90.7%.
Turning to `Nc1nc2c(ncn2[C@@H]2O[C@H](CO)[C@@H](O)[C@H]2O)c(=O)[nH]1` [Guanosine], the cell viability under setting [1] was found to be 98%.
On to `Cc1cc2c(cc1S(N)(=O)=O)S(=O)(=O)CCC2` [Meticrane], for which the cell viability (compound concentration: 3 uM) worked out at 101%.
On the same count and under the same terms, the same measure for `Cc1cc2c(cc1S(N)(=O)=O)S(=O)(=O)CCC2`: 106%; for `CN1CCc2cc(O)c(O)cc2C(c2ccccc2)C1` (stereo not drawn): 118%.
Consider `CC[N+](C)(C)Cc1ccccc1Br` [Bretylium tosylate], for which the cell viability (compound concentration: 3 uM) stood at 115%.
